PubChem BioAssay AID330 (DTP/NCI, 2004)
The list shows only some results of the screen, not a fair sample: it gathers tests that were run many times, whatever their T/C, doses with no T/C, and many T/C values between a quarter and a half above the control. Further doses and runs are listed elsewhere. T/C gives the treated animals as a percentage of the vehicle group. Some doses have a count of surviving animals in place of a T/C: the source files T/C as zero there, which appears to mark a toxic dose or a test without result, not a measured value. Some doses without a T/C left all or most animals alive at the check, yet need not have been tolerated: survival well below the control is almost never listed, so the zero probably covers shortened survival too. Survivors were counted at the toxicity check, usually on the fifth day, unless a day is given; later deaths do not show. Schedules are NCI's codes, read here as Q, the interval in days (D) or hours (H), X, the number of doses. Some doses were run more than once; the values are given in rising order.

Test system: P388 leukemia ip, CD2F1 mice, survival T/C
Assay: NCI In Vivo Anticancer Drug Screen. Data for tumor model P388 Leukemia (intraperitoneal) in CD2F1 (CDF1) mice
Conditions: T/C endpoint: median survival time, higher T/C = longer survival

c1ccc(CCN2CCC3(CC2)CO3)cc1
survivor count (dose: 100.0 mg/kg/injection, schedule: Q01DX001 (ip), vehicle: Klucel (hydroxypropylcellulose) (HPC)): 2 of 6 | survivor count (dose: 200.0 mg/kg/injection, schedule: Q01DX001 (ip), vehicle: Klucel (hydroxypropylcellulose) (HPC)): 0 of 6 | survivor count (dose: 400.0 mg/kg/injection, schedule: Q01DX001 (ip), vehicle: Klucel (hydroxypropylcellulose) (HPC)): 0 of 6

COC(=O)[C@@H]1O[C@H]2OC=C[C@H]21
survivor count (dose: 100.0 mg/kg/injection, schedule: Q01DX005 (ip), vehicle: saline): 4 of 5 | survivor count (dose: 200.0 mg/kg/injection, schedule: Q01DX005 (ip), vehicle: saline): 0 of 5

O=S(=O)(O)c1ccc(/C2=c3\cc/c([n-]3)=C(\c3ccc(S(=O)(=O)O)cc3)c3ccc([n-]3)/C(c3ccc(S(=O)(=O)O)cc3)=c3/cc/c([n-]3)=C(\c3ccc(S(=O)(=O)O)cc3)c3ccc2[n-]3)cc1.[Zn]
survivor count (dose: 7.8 mg/kg/injection, schedule: Q01DX009 (ip), vehicle: saline with Tween-80): 6 of 6 | survivor count (dose: 31.25 mg/kg/injection, schedule: Q01DX009 (ip), vehicle: saline with Tween-80): 6 of 6 | survivor count (dose: 62.5 mg/kg/injection, schedule: Q01DX009 (ip), vehicle: saline with Tween-80): 5 of 6 and 6 of 6 | survivor count (dose: 125.0 mg/kg/injection, schedule: Q01DX009 (ip), vehicle: saline with Tween-80): 3 of 6
